Record: PubChem BioAssay AID504764 (Drosophila RNAi Screening Center, 2011)
The deposit covers about 22,000 reagents; shown is a random part of those with a known target gene and a result. In the full data, 403 (1.9%) were called active. 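Unnormalised raw counts per well; ratio z-scores behind the hit calls and whether each hit raises or lowers signal are not deposited.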 The numbers tell different reagents against one gene apart. Names joined by + are all predicted targets of the reagent. The record does not give: the amount of reagent.

Assay: 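Genes whose knock-down alters Notch-dependent transcription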 (primary screen)
System: Drosophila Kc167 cells
Knock-down reagent: long dsRNA against Drosophila genes
Duration: about 5 days (4 days dsRNA, then 24 h after transfection)
Treatment: transfection of constitutively active membrane-tethered Notch lacking the extracellular domain, read 24 h later
Measured: 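Light from a Notch-responsive E(spl)m3 luciferase reporter under active Notch, with control-promoter and no-Notch reporter wells to normalise; raw counts from paired wells a and b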
Direction: induced reporter light, run 1, well a and induced reporter light, run 1, well b: higher = more light from the Notch target reporter with active Notch; control promoter light, run 1, well a and control promoter light, run 1, well b: higher = more light from the viral control promoter (cell number, transfection, viability); uninduced reporter light, run 1, well a: higher = more light from the Notch target reporter without active Notch
Rule for the call: 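Wells with low control signal or poorly matching duplicates excluded; duplicates averaged; per source plate, z beyond ±2 for induced/control log2 ratio or beyond ±1.8 for induced/uninduced marks a hit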
Calls: active = modifier hit (raised or lowered Notch signal); inactive = not a hit

| Gene | reagent | induced reporter light, run 1, well a | induced reporter light, run 1, well b | control promoter light, run 1, well a | control promoter light, run 1, well b | uninduced reporter light, run 1, well a | outcome |
| --- | --- | --- | --- | --- | --- | --- | --- |
| Ir31a (GeneID 318912) | 1 | – | – | – | – | – | inactive |
| pall (GeneID 39104) | 1 | 1.20e5 | 1.08e5 | 94945 | 57030 | 10040 | inactive |
| Syn (GeneID 41247) | 1 | 72540 | 69180 | 67340 | 46875 | 4970 | inactive |
| Pdk1 (GeneID 38017) | 1 | 74500 | 57285 | 1.29e5 | 93395 | 3860 | inactive |
| YL-1 (GeneID 34516) | 1 | 1.14e5 | 1.40e5 | 85450 | 1.25e5 | 15945 | inactive |
| CG33791 + CG12105 + CG18170 | 1 | 95195 | 1.07e5 | 1.76e5 | 2.16e5 | 8665 | inactive |
| Snx1 (GeneID 33560) | 1 | 1.22e5 | 1.38e5 | 1.19e5 | 99955 | 8475 | inactive |
| CG12116 (GeneID 31782) | 1 | 89465 | 1.06e5 | 1.46e5 | 1.25e5 | 6595 | inactive |
| CG32267 (GeneID 317946) | 1 | – | – | – | – | – | inactive |
| CG42284 (GeneID 37621) | 1 | – | – | – | – | – | inactive |
| Paip2 (GeneID 41591) | 1 | 1.41e5 | 1.45e5 | 1.02e5 | 94940 | 8980 | inactive |
| pnr (GeneID 44849) | 1 | 2.09e5 | 2.61e5 | 3.10e5 | 3.01e5 | 17425 | inactive |
| jet (GeneID 33705) | 1 | 1.57e5 | 1.44e5 | 1.70e5 | 1.82e5 | 15020 | inactive |
| Jhbp13 (GeneID 34729) | 1 | 2.01e5 | 2.10e5 | 1.79e5 | 1.66e5 | 16625 | inactive |
| Jhbp1 (GeneID 40613) | 1 | 90475 | 71495 | 1.12e5 | 95500 | 9605 | inactive |
| CG6362 (GeneID 37032) | 1 | 1.03e5 | 1.05e5 | 1.17e5 | 1.67e5 | 9955 | inactive |
| Rab26 (GeneID 40359) | 1 | 20295 | 17730 | 7178 | 7475 | 5342 | inactive |
| Rab26 (GeneID 40359) | 2 | 1.48e5 | 1.10e5 | 1.15e5 | 78770 | 6455 | inactive |
| Rab26 (GeneID 40359) | 3 | 1.01e5 | 96770 | 83975 | 79305 | 5692 | inactive |
| hng3 (GeneID 38090) | 1 | 1.69e5 | 1.70e5 | 2.88e5 | 2.96e5 | 8095 | inactive |

2 successive entries already listed, for reference:
| Gene | reagent | induced reporter light, run 1, well a | induced reporter light, run 1, well b | control promoter light, run 1, well a | control promoter light, run 1, well b | uninduced reporter light, run 1, well a | outcome |
| --- | --- | --- | --- | --- | --- | --- | --- |
| Pdk1 (GeneID 38017) | 1 | 74500 | 57285 | 1.29e5 | 93395 | 3860 | inactive |
| YL-1 (GeneID 34516) | 1 | 1.14e5 | 1.40e5 | 85450 | 1.25e5 | 15945 | inactive |
